No constants are given. Whether binding was seen depends on the method and setting. Some binding calls cover weakened binding; strength is not graded here. Sequences can lack the tags named with a protein.
Assays:
[1] = biological target: T1, CRY1 PHR (residues 1-491) after cleavage of the His6 tag, with residual vector sequence (Example 6) (human) (UniProt Q16526); assay: FP displacement assay; competitor of labeled CLOCK PAS-B
T1 sequence: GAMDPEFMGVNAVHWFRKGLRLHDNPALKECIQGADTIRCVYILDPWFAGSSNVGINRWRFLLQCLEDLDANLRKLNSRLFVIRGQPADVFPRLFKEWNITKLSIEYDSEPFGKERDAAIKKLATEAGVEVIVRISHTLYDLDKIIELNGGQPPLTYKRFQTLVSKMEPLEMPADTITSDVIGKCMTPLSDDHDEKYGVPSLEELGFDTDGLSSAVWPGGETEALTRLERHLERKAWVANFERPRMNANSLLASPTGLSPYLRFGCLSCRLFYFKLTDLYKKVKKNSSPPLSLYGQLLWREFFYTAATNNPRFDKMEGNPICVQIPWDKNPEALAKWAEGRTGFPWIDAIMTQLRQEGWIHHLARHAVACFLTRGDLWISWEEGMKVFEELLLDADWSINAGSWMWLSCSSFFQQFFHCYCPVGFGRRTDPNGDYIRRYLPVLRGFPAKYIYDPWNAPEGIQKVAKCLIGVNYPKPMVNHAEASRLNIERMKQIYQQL

Protein sequences, listed by entry. Tags and fused reporters are not part of them. Lines headed by an entry give the natural chain unless they say otherwise; changes in a name come on top.
UniProt Q16526: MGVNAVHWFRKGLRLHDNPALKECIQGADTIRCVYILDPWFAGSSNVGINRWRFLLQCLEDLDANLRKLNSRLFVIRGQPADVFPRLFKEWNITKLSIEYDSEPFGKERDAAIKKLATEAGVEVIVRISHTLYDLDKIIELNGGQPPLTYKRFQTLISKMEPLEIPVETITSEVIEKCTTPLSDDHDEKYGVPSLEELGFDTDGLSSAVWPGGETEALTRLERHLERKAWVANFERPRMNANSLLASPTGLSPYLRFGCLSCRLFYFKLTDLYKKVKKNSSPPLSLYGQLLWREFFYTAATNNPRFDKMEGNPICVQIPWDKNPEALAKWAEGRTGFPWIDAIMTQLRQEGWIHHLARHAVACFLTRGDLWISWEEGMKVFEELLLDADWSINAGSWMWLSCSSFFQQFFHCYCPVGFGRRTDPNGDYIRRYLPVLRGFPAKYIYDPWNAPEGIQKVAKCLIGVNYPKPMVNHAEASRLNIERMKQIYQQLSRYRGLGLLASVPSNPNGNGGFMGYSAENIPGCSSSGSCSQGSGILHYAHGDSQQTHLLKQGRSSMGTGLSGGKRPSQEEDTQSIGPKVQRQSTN

[2] = biological target: T1, CRY1 PHR (residues 1-491) after cleavage of the His6 tag, with residual vector sequence (Example 6) (human); assay: FP displacement assay; 100 µM peptide, 20 nM CLOCK PAS-B probe, 4 µM CRY1 PHR; competitor of labeled CLOCK PAS-B

## CSQGSGILHYAHGDSQQTHLLK [Human CRY1 Exon 11-encoded peptide (residues 530-552)]
[1]
  binding: binds
[2]
  binding: binds

— patent US20190324032A1 (University of California, published 2019)
